The record followed here is patent US20220289806A1 (CYTIMM THERAPEUTICS, published 2022).

Sequences of proteins named here, by UniProt entry; tags and fusion partners are left off. A change or cut given only in a name is not applied to a line headed by its entry.
UniProt P60568: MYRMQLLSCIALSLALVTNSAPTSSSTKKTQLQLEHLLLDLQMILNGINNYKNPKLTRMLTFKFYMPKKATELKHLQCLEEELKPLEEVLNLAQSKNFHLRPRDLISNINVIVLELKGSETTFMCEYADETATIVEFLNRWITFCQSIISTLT

Assay [1] has as its target T1, IL2Rαβγ on CTLL2 cells (UniProt P01590).
T1 sequence (looked up) 1: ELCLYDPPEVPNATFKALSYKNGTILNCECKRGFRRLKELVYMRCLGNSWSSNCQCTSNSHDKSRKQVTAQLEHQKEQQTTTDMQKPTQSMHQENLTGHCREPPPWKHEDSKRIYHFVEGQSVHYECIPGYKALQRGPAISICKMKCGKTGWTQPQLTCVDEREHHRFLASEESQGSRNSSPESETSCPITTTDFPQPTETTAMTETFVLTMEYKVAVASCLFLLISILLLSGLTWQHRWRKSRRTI
T1 sequence (looked up) 2: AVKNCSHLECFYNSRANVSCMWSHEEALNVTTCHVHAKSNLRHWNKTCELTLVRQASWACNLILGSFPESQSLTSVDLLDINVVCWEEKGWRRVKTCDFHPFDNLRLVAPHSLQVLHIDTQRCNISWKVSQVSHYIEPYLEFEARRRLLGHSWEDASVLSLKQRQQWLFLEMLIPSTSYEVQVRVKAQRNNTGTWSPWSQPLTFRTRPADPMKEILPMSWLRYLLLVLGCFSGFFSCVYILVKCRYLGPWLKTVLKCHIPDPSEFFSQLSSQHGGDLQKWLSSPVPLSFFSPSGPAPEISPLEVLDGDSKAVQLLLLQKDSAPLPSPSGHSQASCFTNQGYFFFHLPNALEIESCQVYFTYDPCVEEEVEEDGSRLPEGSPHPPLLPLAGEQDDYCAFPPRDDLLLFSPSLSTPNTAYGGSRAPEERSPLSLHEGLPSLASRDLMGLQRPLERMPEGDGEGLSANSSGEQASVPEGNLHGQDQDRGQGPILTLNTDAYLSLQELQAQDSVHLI
T1 sequence (looked up) 3: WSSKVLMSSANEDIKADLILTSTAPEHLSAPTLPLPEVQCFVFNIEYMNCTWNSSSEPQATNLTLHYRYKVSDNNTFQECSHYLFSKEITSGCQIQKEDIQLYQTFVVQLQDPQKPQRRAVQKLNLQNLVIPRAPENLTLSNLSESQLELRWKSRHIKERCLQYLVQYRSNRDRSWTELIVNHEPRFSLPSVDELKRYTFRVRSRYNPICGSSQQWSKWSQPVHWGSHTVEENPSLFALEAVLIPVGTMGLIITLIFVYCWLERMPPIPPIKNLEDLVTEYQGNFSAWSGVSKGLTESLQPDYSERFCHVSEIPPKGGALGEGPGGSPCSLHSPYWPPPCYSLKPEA
The assay can be described thus: flow cytometry on CTLL2 cells, His-tagged IL-2 detected with anti-His-APC. For orientation: In flow cytometry, cells or beads pass a laser one at a time.

Assay [2] concerns the target T1, IL2Rαβγ on CTLL2 cells. Put plainly: flow cytometry on cells.
In assay [3] the target is T1, IL2Rαβγ on CTLL2 cells. The assay can be described thus: flow cytometry: His-tagged IL-2 variant on CTLL2 cells at 4 °C, detected with anti-His-APC; panel title '191106 ctll2 3 wash 0 hours'.

No constants are given. Whether binding was seen depends on the method and setting. Some entries that bind do so weakly or less than the wild type.

For “Y31C-PEG20 (from UniProt P60568 21-153) (ligand)”, the binding entry in assay [1] is given as “binds”.

In the case of “Y31C mutein (from UniProt P60568 21-153) (ligand)”, the binding entry in assay [2], in assay [3] and in assay [1] was “binds” in each case.

For “recombinant human IL-2 with mutation from Cysteine to Serine at position 125 (rhIL-2) (from UniProt P60568 21-153) (ligand)”, the binding result in assay [3] is listed as “binds”.
